According to patent publication US8258256:
Results are given in words; binding and its absence hold for the method and conditions named. Some entries that bind do so weakly or less than the wild type.

Chains of the proteins cited; added tags and fusions are not shown. Residues count along the entry.
UniProt P02769, residues 25-607: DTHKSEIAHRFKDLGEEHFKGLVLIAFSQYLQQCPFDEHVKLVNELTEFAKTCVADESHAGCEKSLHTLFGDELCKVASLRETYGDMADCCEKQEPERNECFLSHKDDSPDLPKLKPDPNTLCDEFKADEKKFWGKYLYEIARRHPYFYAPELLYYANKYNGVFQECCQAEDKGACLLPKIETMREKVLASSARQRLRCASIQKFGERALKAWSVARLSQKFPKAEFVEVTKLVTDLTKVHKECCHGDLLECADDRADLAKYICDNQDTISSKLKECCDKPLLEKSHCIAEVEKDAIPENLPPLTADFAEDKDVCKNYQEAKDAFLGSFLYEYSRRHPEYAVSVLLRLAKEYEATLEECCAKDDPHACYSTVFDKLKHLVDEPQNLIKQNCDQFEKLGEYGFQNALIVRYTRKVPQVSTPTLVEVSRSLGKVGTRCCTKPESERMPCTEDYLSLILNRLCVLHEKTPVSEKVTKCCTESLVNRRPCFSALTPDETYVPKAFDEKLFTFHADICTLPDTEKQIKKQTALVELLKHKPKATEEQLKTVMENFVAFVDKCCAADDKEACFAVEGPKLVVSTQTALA

Target: BSA (UniProt P02769)
Assay: ELISA, biotinylated control peptide on immobilized BSA (non-specific)

binding: binds
B1: non-selected control peptide …-biotin (peptide)
peptide: QMARIPKRLARHK
modifications: biotin on the C-terminal Lys
